We go through 9 molecules from US20140038203A1, “METHODS FOR DETECTING OR PREDICTING KIDNEY DISEASE” (MUSC FOUNDATION FOR RESEARCH DEVELOPMENT, priority 2012, published 2014).

This data set can be described thus: RRT study: LC-MS/MS urinary proteomics, AKI after cardiac surgery, RRT vs No RRT. On the set-up: species or system human. The following applies: patients who did vs did not require RRT/dialysis; for Up or Down: direction of urinary abundance; for Mean Fold Change: read with the Up or Down column.

B1: Chromogranin-A (protein, UniProt P10645 19-457, looked up)
Chromogranin-A: LPVNSPMNKGDTEVMKCIVEVISDTLSKPSPMPVSQECFETLRGDERILSILRHQNLLKELQDLALQGAKERAHQQKKHSGFEDELSEVLENQSSQAELKEAVEEPSSKDVMEKREDSKEAEKSGEATDGARPQALPEPMQESKAEGNNQAPGEEEEEEEEATNTHPPASLPSQKYPGPQAEGDSEGLSQGLVDREKGLSAEPGWQAKREEEEEEEEEAEAGEEAVPEEEGPTVVLNPHPSLGYKEIRKGESRSEALAVDGAGKPGAEEAQDPEGKGEQEHSQQKEEEEEMAVVPQGLFRGGKSGELEQEEERLSKEWEDSKRWSKMDQLAKELTAEKRLEGQEEEEDNRDSSMKLSFRARAYGFRGPGPQLRRGWRPSSREDSLEAGLPLQVRGYPEEKKEEEGSANRRPEDQELESLSAIEAELEKVAHQLQALRRG
Consider B1, for which the “Up or Down” value was “Up” and the “Mean Fold Change” value is on record as 7.558.

B2: 3-mercaptopyruvate sulfurtransferase (protein, UniProt P25325 2-297, looked up)
3-mercaptopyruvate …: ASPQLCRALVSAQWVAEALRAPRAGQPLQLLDASWYLPKLGRDARREFEERHIPGAAFFDIDQCSDRTSPYDHMLPGAEHFAEYAGRLGVGAATHVVIYDASDQGLYSAPRVWWMFRAFGHHAVSLLDGGLRHWLRQNLPLSSGKSQPAPAEFRAQLDPAFIKTYEDIKENLESRRFQVVDSRATGRFRGTEPEPRDGIEPGHIPGTVNIPFTDFLSQEGLEKSPEEIRHLFQEKKVDLSKPLVATCGSGVTACHVALGAYLCGKPDVPIYDGSWVEWYMRARPEDVISEGRGKTH
With B2, the “Up or Down” value is “Up” and the “Mean Fold Change” value is 2.229.

B3: Apolipoprotein C-II (protein, UniProt P02655 29-101, looked up)
Apolipoprotein C-II: DEMPSPTFLTQVKESLSSYWESAKTAAQNLYEKTYLPAVDEKLRDLYSKSTAAMSTYTGIFTDQVLSVLKGEE
In the case of B3, the “Up or Down” value is recorded as “Up” and the “Mean Fold Change” value turned out to be 8.034.

B4: N-acetylglucosamine-6-sulfatase (protein, UniProt P15586 37-552, looked up)
N-acetylglucosamine-6-sulfatas …: VFGVAAGTRRPNVVLLLTDDQDEVLGGMTPLKKTKALIGEMGMTFSSAYVPSALCCPSRASILTGKYPHNHHVVNNTLEGNCSSKSWQKIQEPNTFPAILRSMCGYQTFFAGKYLNEYGAPDAGGLEHVPLGWSYWYALEKNSKYYNYTLSINGKARKHGENYSVDYLTDVLANVSLDFLDYKSNFEPFFMMIATPAPHSPWTAAPQYQKAFQNVFAPRNKNFNIHGTNKHWLIRQAKTPMTNSSIQFLDNAFRKRWQTLLSVDDLVEKLVKRLEFTGELNNTYIFYTSDNGYHTGQFSLPIDKRQLYEFDIKVPLLVRGPGIKPNQTSKMLVANIDLGPTILDIAGYDLNKTQMDGMSLLPILRGASNLTWRSDVLVEYQGEGRNVTDPTCPSLSPGVSQCFPDCVCEDAYNNTYACVRTMSALWNLQYCEFDDQEVFVEVYNLTADPDQITNIAKTIDPELLGKMNYRLMMLQSCSGPTCRTPGVFDPGYRFDPRLMFSNRGSVRTRRFSKHLL
Regarding B4, the “Up or Down” value is reported as “Up” and the “Mean Fold Change” value worked out at 2.783.

B5: Ubiquitin carboxyl-terminal hydrolase 36 (protein, UniProt Q9P275 1-1123, looked up)
Ubiquitin carboxyl-terminal …: MPIVDKLKEALKPGRKDSADDGELGKLLASSAKKVLLQKIEFEPASKSFSYQLEALKSKYVLLNPKTEGASRHKSGDDPPARRQGSEHTYESCGDGVPAPQKVLFPTERLSLRWERVFRVGAGLHNLGNTCFLNATIQCLTYTPPLANYLLSKEHARSCHQGSFCMLCVMQNHIVQAFANSGNAIKPVSFIRDLKKIARHFRFGNQEDAHEFLRYTIDAMQKACLNGCAKLDRQTQATTLVHQIFGGYLRSRVKCSVCKSVSDTYDPYLDVALEIRQAANIVRALELFVKADVLSGENAYMCAKCKKKVPASKRFTIHRTSNVLTLSLKRFANFSGGKITKDVGYPEFLNIRPYMSQNNGDPVMYGLYAVLVHSGYSCHAGHYYCYVKASNGQWYQMNDSLVHSSNVKVVLNQQAYVLFYLRIPGSKKSPEGLISRTGSSSLPGRPSVIPDHSKKNIGNGIISSPLTGKRQDSGTMKKPHTTEEIGVPISRNGSTLGLKSQNGCIPPKLPSGSPSPKLSQTPTHMPTILDDPGKKVKKPAPPQHFSPRTAQGLPGTSNSNSSRSGSQRQGSWDSRDVVLSTSPKLLATATANGHGLKGNDESAGLDRRGSSSSSPEHSASSDSTKAPQTPRSGAAHLCDSQETNCSTAGHSKTPPSGADSKTVKLKSPVLSNTTTEPASTMSPPPAKKLALSAKKASTLWRATGNDLRPPPPSPSSDLTHPMKTSHPVVASTWPVHRARAVSPAPQSSSRLQPPFSPHPTLLSSTPKPPGTSEPRSCSSISTALPQVNEDLVSLPHQLPEASEPPQSPSEKRKKTFVGEPQRLGSETRLPQHIREATAAPHGKRKRKKKKRPEDTAASALQEGQTQRQPGSPMYRREGQAQLPAVRRQEDGTQPQVNGQQVGCVTDGHHASSRKRRRKGAEGLGEEGGLHQDPLRHSCSPMGDGDPEAMEESPRKKKKKKRKQETQRAVEEDGHLKCPRSAKPQDAVVPESSSCAPSANGWCPGDRMGLSQAPPVSWNGERESDVVQELLKYSSDKAYGRKVLTWDGKMSAVSQDAIEDSRQARTETVVDDWDEEFDRGKEKKIKKFKREKRRNFNAFQKLQTRRNFWSVTHPAKAASLSYRR
As to B5, the “Up or Down” value is “Up” and the “Mean Fold Change” value came out at 2.55.

B6: Phosphatidylethanolamine-binding protein 1 (protein, UniProt P30086 2-187, looked up)
Phosphatidylethanolamine-bindi …: PVDLSKWSGPLSLQEVDEQPQHPLHVTYAGAAVDELGKVLTPTQVKNRPTSISWDGLDSGKLYTLVLTDPDAPSRKDPKYREWHHFLVVNMKGNDISSGTVLSDYVGSGPPKGTGLHRYVWLVYEQDRPLKCDEPILSNRSGDHRGKFKVASFRKKYELRAPVAGTCYQAEWDDYVPKLYEQLSGK
Take B6: the “Up or Down” value is “Up”.

B7: Protein FAM3C (protein, UniProt Q92520 25-227, looked up)
Protein FAM3C: QVFEIKMDASLGNLFARSALDTAARSTKPPRYKCGISKACPEKHFAFKMASGAANVVGPKICLEDNVLMSGVKNNVGRGINVALANGKTGEVLDTKYFDMWGGDVAPFIEFLKAIQDGTIVLMGTYDDGATKLNDEARRLIADLGSTSITNLGFRDNWVFCGGKGIKTKSPFEQHIKNNKDTNKYEGWPEVVEMEGCIPQKQD
For the molecule B7, the “Up or Down” value is given as “Up” and the “Mean Fold Change” value is 1.912.

B8: Myc box-dependent-interacting protein 1 (protein, UniProt O00499 2-593, looked up)
Myc box-dependent-interacting …: AEMGSKGVTAGKIASNVQKKLTRAQEKVLQKLGKADETKDEQFEQCVQNFNKQLTEGTRLQKDLRTYLASVKAMHEASKKLNECLQEVYEPDWPGRDEANKIAENNDLLWMDYHQKLVDQALLTMDTYLGQFPDIKSRIAKRGRKLVDYDSARHHYESLQTAKKKDEAKIAKPVSLLEKAAPQWCQGKLQAHLVAQTNLLRNQAEEELIKAQKVFEEMNVDLQEELPSLWNSRVGFYVNTFQSIAGLEENFHKEMSKLNQNLNDVLVGLEKQHGSNTFTVKAQPSDNAPAKGNKSPSPPDGSPAATPEIRVNHEPEPAGGATPGATLPKSPSQLRKGPPVPPPPKHTPSKEVKQEQILSLFEDTFVPEISVTTPSQFEAPGPFSEQASLLDLDFDPLPPVTSPVKAPTPSGQSIPWDLWEPTESPAGSLPSGEPSAAEGTFAVSWPSQTAEPGPAQPAEASEVAGGTQPAAGAQEPGETAASEAASSSLPAVVVETFPATVNGTVEGGSGAGRLDLPPGFMFKVQAQHDYTATDTDELQLKAGDVVLVIPFQNPEEQDEGWLMGVKESDWNQHKELEKCRGVFPENFTERVP
As to B8, the “Up or Down” value is “Up” and the “Mean Fold Change” value is given as 2.785.

B9: Glutaredoxin-1 (protein, UniProt P35754 2-106, looked up)
Glutaredoxin-1: AQEFVNCKIQPGKVVVFIKPTCPYCRRAQEILSQLPIKQGLLEFVDITATNHTNEIQDYLQQLTGARTVPRVFIGKDCIGGCSDLVSLQQSGELLTRLKQIGALQ
In the case of B9, the “Up or Down” value is recorded as “Up” and the “Mean Fold Change” value was found to be 2.006.
